In the supplement of paper PMC5770031:
Some of the results follow. This data set is noisy: repeats of one test often differ as much as different tests do.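 ATM8/balancer (normal ATM) heterozygous flies were crossed on treated food; parents laid eggs 5–6 days, offspring developed ~12 days, so parents and larvae ingested compound. Readout: fraction of emerged adults homozygous for ATM8 versus 2% DMSO controls. Compounds were neutral at 10–20% homozygotes, harmful below 10%, helpful above 20%.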

tested on: Drosophila melanogaster ATM8 (temperature-sensitive ATM allele); assay: fraction of eclosed F1 progeny that are homozygous ATM8 (rescue of developmental lethality); higher = more rescue of ATM8 developmental lethality; extreme values may be limits of the assay; conditions: compound concentration applied to food 0.2 mM; 21 °C

Compound | fraction of eclosed F1 progeny that are homozygous ATM8
CS(=O)(=O)c1ccc([C@@H](O)[C@@H](CO)NC(=O)C(Cl)Cl)cc1 | 0.0435
CC(C)Cc1ccc([C@H](C)C(=O)O)cc1 | 0.0385
NCCc1c[nH]c2ccc(O)cc12 | 0.0667
CCOc1cc(NC(C)=O)ccc1C(=O)OC | 0.0526
O=c1[nH]cc(F)c(=O)[nH]1 | 0.115
O=C(O)c1cc(=O)c2cccc(O)c2[nH]1 | 0.132
O=c1cc(-c2cc(O)c(O)c(O)c2)oc2cc(O)cc(O)c12 | 0.267
C[C@@H](c1ncncc1F)[C@](O)(Cn1cncn1)c1ccc(F)cc1F | 0.0227
O=[N+]([O-])c1ccc([As](=O)(O)O)cc1 | 0.0263
O=C(Nc1cc(Cl)cc(Cl)c1O)c1c(O)c(Cl)cc(Cl)c1Cl | 0.111
C[C@@H]1CC(=O)NN=C1c1ccc(NN=C(C#N)C#N)cc1 | 0.0645
C[C@@H]1O[C@@H](Oc2c(-c3ccc(O)c(O)c3)oc3cc(O)cc(O)c3c2=O)[C@H](O)[C@H](O)[C@H]1O | 0.123
CC(C)[C@@H]1CC[C@@H](C)C[C@H]1O | 0.37
O=C1C(CC[S+]([O-])c2ccccc2)C(=O)N(c2ccccc2)N1c1ccccc1 (configuration not stated) | 0.133
CCC(COC(=O)c1cc(OC)c(OC)c(OC)c1)(c1ccccc1)N(C)C (configuration not stated) | 0.149
CC(=O)OC/C=C(C)/C=C/C=C(C)/C=C/C1=C(C)CCCC1(C)C | 0.0513
NS(=O)(=O)c1cc2c(cc1Cl)N=C(CSCc1ccccc1)NS2(=O)=O | 0.075
OC[C@@H](O)[C@@H](O)CO | 0.0952
CC(C)c1ccc2c(c1)CCC1C(C)(C(N)=O)CCCC21C (configuration not stated) | 0
CCC[C@H](N[C@@H](C)C(=O)N1[C@H](C(=O)O)C[C@@H]2CCCC[C@@H]21)C(=O)O | 0.182
Nc1ccc(S(=O)(=O)Nc2ccc(Cl)nn2)cc1 | 0.0714
CC(C)(O)CC[C@@H](O)[C@](C)(O)[C@H]1CC[C@@]2(O)C3=CC(=O)[C@@H]4C[C@@H](O)[C@@H](O)C[C@]4(C)[C@H]3CC[C@]12C | 0.153

Compound | fraction of eclosed F1 progeny that are homozygous ATM8
COC(=O)C(c1ccccc1)C1CCCCN1 (configuration not stated) | 0.179
Cc1cc2nc3ccc(N(C)C)cc3[s+]c2cc1N | 0.152
COC1=C(O)C(=O)c2c(cc3oc(C(C)=O)c(O)c3c2O)C1=O | 0.0909
C[C@H]1C(=O)O[C@@H]2CCN3CC=C(COC(=O)[C@](C)(O)[C@]1(C)O)[C@H]23 | 0.188
Oc1ccc(O)cc1 | 0.182
COC[C@]12CN(C=O)[C@@H]3[C@@H]4[C@H](OC)[C@H]1[C@@]3([C@@H](OC)C[C@H]2O)[C@@H]1C[C@@]2(O)[C@H](OC(=O)c3ccccc3)[C@@H]1[C@]4(OC(C)=O)[C@@H](O)[C@@H]2OC | 0.118
CC1=C2C(O)C(=O)OC3CC4C(C)(C)C(=O)C=C[C@]4(C)C(CC1)[C@]23C (some centres not stated) | 0.0526
CC1CCC(NC(=O)N(CCCl)N=O)CC1 (configuration not stated) | 0.214
CC(C)=CCCC1(C)C=Cc2c(O)c3c(c(CC=C(C)C)c2O1)OC12C(=CC4CC1C(C)(C)OC2(C/C=C(/C)C(=O)O)C4O)C3=O (configuration not stated) | 0.146
S=C=Nc1ccc(N=C=S)cc1 | 0.136
C/C=C(/C)C(=O)O[C@H]1CC[C@@]2(C)[C@@H]3CC[C@H]4[C@]5(O)C[C@H](O)[C@@]6(O)[C@@H](CN7C[C@@H](C)CC[C@H]7[C@@]6(C)O)[C@]5(O)C[C@]42O[C@]13O | 0.0571
C#C[C@]1(O)CC[C@H]2[C@@H]3[C@H](C)CC4=C(CCC(=O)C4)[C@H]3CC[C@@]21C | 0.0328
COc1cc(C(=O)N2CCOCC2)cc(OC)c1OC | 0.235
CC(=O)OCC(=O)[C@@]1(O)CC[C@H]2[C@@H]3CCC4=CC(=O)CC[C@]4(C)[C@H]3C(=O)C[C@@]21C | 0.103
CCCCC(=O)O[C@]1(C(=O)CO)[C@@H](C)C[C@H]2[C@@H]3CCC4=CC(=O)C=C[C@]4(C)[C@@]3(F)[C@@H](O)C[C@@]21C | 0
CO[C@]12C[C@@H](COC(=O)c3cncc(Br)c3)CN(C)[C@@H]1Cc1cn(C)c3cccc2c13 | 0.0698
COc1cc(O)c(C(C)=O)c(OC)c1 | 0.0357
CN(C)CCCOc1nn(Cc2ccccc2)c2ccccc12 | 0.213
CC(=O)OCC1=C(C(=O)O)N2C(=O)[C@@H](N)[C@H]2SC1 | 0.2
N[C@@H](COCc1ccccc1)C(=O)O | 0.0526
CC(=O)Oc1cc(C(C)C)c(OCCN(C)C)cc1C | 0.107
CC(=O)[C@H]1CC[C@H]2[C@@H]3CC[C@@H]4C[C@H](O)CC[C@]4(C)[C@H]3CC[C@]12C | 0.1

Four entries drawn at random from the list so far, as already listed:
Compound | fraction of eclosed F1 progeny that are homozygous ATM8
CC(C)=CCCC1(C)C=Cc2c(O)c3c(c(CC=C(C)C)c2O1)OC12C(=CC4CC1C(C)(C)OC2(C/C=C(/C)C(=O)O)C4O)C3=O (configuration not stated) | 0.146
Cc1cc2nc3ccc(N(C)C)cc3[s+]c2cc1N | 0.152
CC(=O)Oc1cc(C(C)C)c(OCCN(C)C)cc1C | 0.107
COC1=C(O)C(=O)c2c(cc3oc(C(C)=O)c(O)c3c2O)C1=O | 0.0909

Continued.

Compound | fraction of eclosed F1 progeny that are homozygous ATM8
O=C(O)c1cc(O)c2c(c1)[C@H]([C@H]1c3cc(C(=O)O)cc(O)c3C(=O)c3c(O[C@@H]4O[C@H](CO)[C@@H](O)[C@H](O)[C@H]4O)cccc31)c1cccc(O[C@@H]3O[C@H](CO)[C@@H](O)[C@H](O)[C@H]3O)c1C2=O | 0.269
COc1cc2c(cc1OC)[C@@H]1C(=O)c3ccc4oc(C(C)C)cc4c3O[C@@H]1CO2 | 0.262
C[C@@H]1C(=O)O[C@H]2C[C@@]34[C@H]5C[C@@H](C(C)(C)C)[C@]36[C@@H](OC(=O)[C@@H]6O)O[C@@]4(C(=O)O5)[C@]21O | 0.105
CC(c1cc2ccccc2s1)N(O)C(N)=O (configuration not stated) | 0.217
NC(=O)c1ncn([C@@H]2O[C@H](CO)[C@@H](O)[C@H]2O)c1N | 0.268
CC1=CC(=O)CC(C)(C)C1(O)/C=C/C(C)=C\C(=O)O (mixture of isomers) [ABSCISIC ACID (cis,trans; +/-)] | 0.152
OC[C@@H](O)[C@H]1O[C@@H]2O[C@H](C(Cl)(Cl)Cl)O[C@@H]2[C@H]1O | 0.222
Nc1ncnc2c1ncn2[C@@H]1O[C@H](COP(=O)(O)O)[C@@H](O)[C@H]1O | 0.167
C[N+]12CCC(CC1)C(OC(=O)C(O)(c1ccccc1)c1ccccc1)C2 (configuration not stated) | 0.0968
O=C(O)CCC1NCC2CC1CN1CCCCC21 (configuration not stated) | 0.0714
CCC(=O)O[C@H]1[C@H](O[C@@H]2[C@@H](C)[C@H](O[C@H]3C[C@@](C)(OC)[C@@H](O)[C@H](C)O3)[C@@H](C)C(=O)O[C@H](CC)[C@@](C)(O)[C@H](O)[C@@H](C)C(=O)[C@H](C)C[C@@]2(C)O)O[C@H](C)C[C@@H]1N(C)C | 0.17
CN(C)CCc1c[nH]c2ccc(C[C@H]3COC(=O)N3)cc12 | 0.117
CN(C)CCC=C1c2ccccc2C=Cc2ccccc21 | 0.0495
O=C1CCC[C@@H]2[C@H]3C[C@@H](CN12)[C@@H]1CCCCN1C3.[O-][Cl+3]([O-])([O-])O | 0.114
CC(=O)O[C@H]1CC[C@]2(C)[C@H]3CC=C4[C@@H]5CC(C)(C)CC[C@]5(C)CC[C@@]4(C)[C@]3(C)CC[C@H]2C1(C)C [beta-AMYRIN ACETATE] | 0.0714
COc1cc(/C=C/C(=O)O)ccc1O | 0.191
CNNCc1ccc(C(=O)NC(C)C)cc1 | 0.0263
O=c1[nH]c(=O)n([C@H]2C[C@H](O)[C@@H](CO)O2)cc1F | 0
C[n+]1cccc(C(=O)[O-])c1 | 0.0217
CC(CC(C(N)=O)(c1ccccc1)c1ccccc1)N(C)C (configuration not stated) | 0
CC1(C)[C@@H](O[C@H]2O[C@H](C(=O)O)[C@@H](O)[C@H](O)[C@H]2O[C@@H]2O[C@H](C(=O)O)[C@@H](O)[C@H](O)[C@H]2O)CC[C@]2(C)[C@H]3C(=O)C=C4[C@@H]5C[C@@](C)(C(=O)O)CC[C@]5(C)CC[C@@]4(C)[C@]3(C)CC[C@@H]12 | 0.279
C[C@]12C=CC(=O)C=C1CC[C@@H]1[C@@H]2C(=O)C[C@@]2(C)[C@H]1CC[C@]2(O)C(=O)CO | 0.0217

Compound | fraction of eclosed F1 progeny that are homozygous ATM8
CCOC(=O)CCC(=O)O[C@H]1[C@H](O[C@@H]2[C@@H](C)[C@H](O[C@H]3C[C@@](C)(OC)[C@@H](O)[C@H](C)O3)[C@@H](C)C(=O)O[C@H](CC)[C@@](C)(O)[C@H](O)[C@@H](C)C(=O)[C@H](C)C[C@@]2(C)O)O[C@H](C)C[C@@H]1N(C)C | 0.0294
CCn1cc(C(=O)O)c(=O)c2cc(F)c(N3CCNC(C)C3)c(F)c21 (configuration not stated) | 0.0303
CNC(=C[N+](=O)[O-])NCCSCc1csc(CN(C)C)n1 | 0.265
OCc1ccccc1 | 0.027
COC(=O)/C(C)=C\C[C@@]12OC(C)(C)[C@@H]3C[C@@H](C=C4C(=O)c5c(O)c6c(c(CC=C(C)C)c5O[C@]431)O[C@](C)(CCC=C(C)C)C=C6)C2=O | 0
CCn1cc(C(=O)O)c(=O)c2cc(F)c(N3CCN(C)CC3)cc21 | 0.235
COc1cc2c(cc1-c1cc3cc4ccoc4cc3oc1=O)OCO2 | 0.0449
Cc1ccc(S(=O)(=O)NCl)cc1 | 0.1
C[C@@H]1O[C@@H]1P(=O)(O)O | 0.0909
C[C@@H]1CN(c2c(F)c(N)c3c(=O)c(C(=O)O)cn(C4CC4)c3c2F)C[C@H](C)N1 | 0
O=C(N/N=C/c1ccc([N+](=O)[O-])o1)c1ccc(O)cc1 | 0.229
CC(C)C[C@H](CN)CC(=O)O | 0.0789
NC(=O)c1ncn([C@@H]2O[C@H](CO)[C@@H](O)[C@H]2O)c1O | 0.0678
CN(C)C(=S)SSC(=S)N(C)C | 0.0159
OCC(Br)(Br)Br | 0.143
CC(=O)Nc1c(I)c(NC(C)=O)c(I)c(C(=O)O)c1I | 0.0143
CCc1cc(C(N)=S)ccn1 | 0.176
Cc1ccc(C(=O)Nc2ccc(S(=O)(=O)O)c3cc(S(=O)(=O)O)cc(S(=O)(=O)O)c23)cc1NC(=O)c1cccc(NC(=O)Nc2cccc(C(=O)Nc3cc(C(=O)Nc4ccc(S(=O)(=O)O)c5cc(S(=O)(=O)O)cc(S(=O)(=O)O)c45)ccc3C)c2)c1 | 0.125
CC(=O)Nc1ccc(S(=O)(=O)Nc2ccc([N+](=O)[O-])cc2)cc1 | 0.0978
O=C1NC(=O)C(=O)C(=O)N1 | 0.136
C[C@H]1[C@H](NC(=O)/C(=N\OC(C)(C)C(=O)O)c2csc(N)n2)C(=O)N1S(=O)(=O)O | 0.178

A few values from the list.
Value of C/C=C(/C)C(=O)O[C@H]1CC[C@@]2(C)[C@@H]3CC[C@H]4[C@]5(O)C[C@H](O)[C@@]6(O)[C@@H](CN7C[C@@H](C)CC[C@H]7[C@@]6(C)O)[C@]5(O)C[C@]42O[C@]13O under fraction of eclosed F1 progeny that are homozygous ATM8: 0.0571
Value of C[C@@H]1CN(c2c(F)c(N)c3c(=O)c(C(=O)O)cn(C4CC4)c3c2F)C[C@H](C)N1 under fraction of eclosed F1 progeny that are homozygous ATM8: 0
